According to PMC6476135:
Results are given in words; binding and its absence hold for the method and conditions named. In cells and extracts the contact can be indirect. Some entries that bind do so weakly or less than the wild type.

Sequences of proteins named here, by UniProt entry; tags and fusion partners are left off. A change or cut given only in a name is not applied to a line headed by its entry. Residues count along the entry.
UniProt Q99MB1, residues 26-905: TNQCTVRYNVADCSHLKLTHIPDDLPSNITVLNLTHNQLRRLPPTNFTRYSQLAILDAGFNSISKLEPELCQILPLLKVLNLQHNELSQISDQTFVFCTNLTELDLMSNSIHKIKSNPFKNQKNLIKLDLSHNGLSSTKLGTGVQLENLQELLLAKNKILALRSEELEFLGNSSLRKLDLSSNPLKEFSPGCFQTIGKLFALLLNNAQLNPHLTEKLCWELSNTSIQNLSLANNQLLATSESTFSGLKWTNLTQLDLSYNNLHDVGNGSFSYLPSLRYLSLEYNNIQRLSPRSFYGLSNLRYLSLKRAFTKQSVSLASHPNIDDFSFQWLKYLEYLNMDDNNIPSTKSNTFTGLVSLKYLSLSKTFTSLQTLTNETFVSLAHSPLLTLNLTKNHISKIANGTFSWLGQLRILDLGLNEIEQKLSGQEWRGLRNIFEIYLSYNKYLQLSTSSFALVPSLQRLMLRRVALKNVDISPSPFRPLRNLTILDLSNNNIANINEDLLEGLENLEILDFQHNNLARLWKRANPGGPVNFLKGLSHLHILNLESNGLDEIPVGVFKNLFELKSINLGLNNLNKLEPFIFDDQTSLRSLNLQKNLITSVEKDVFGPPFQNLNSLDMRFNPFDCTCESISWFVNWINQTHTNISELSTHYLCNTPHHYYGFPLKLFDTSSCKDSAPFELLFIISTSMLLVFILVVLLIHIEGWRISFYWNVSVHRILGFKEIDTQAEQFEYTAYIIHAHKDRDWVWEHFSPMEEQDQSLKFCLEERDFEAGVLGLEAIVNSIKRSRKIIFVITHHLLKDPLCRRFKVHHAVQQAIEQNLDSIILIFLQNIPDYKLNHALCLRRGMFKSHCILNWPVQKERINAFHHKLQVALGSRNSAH
UniProt Q99LI8: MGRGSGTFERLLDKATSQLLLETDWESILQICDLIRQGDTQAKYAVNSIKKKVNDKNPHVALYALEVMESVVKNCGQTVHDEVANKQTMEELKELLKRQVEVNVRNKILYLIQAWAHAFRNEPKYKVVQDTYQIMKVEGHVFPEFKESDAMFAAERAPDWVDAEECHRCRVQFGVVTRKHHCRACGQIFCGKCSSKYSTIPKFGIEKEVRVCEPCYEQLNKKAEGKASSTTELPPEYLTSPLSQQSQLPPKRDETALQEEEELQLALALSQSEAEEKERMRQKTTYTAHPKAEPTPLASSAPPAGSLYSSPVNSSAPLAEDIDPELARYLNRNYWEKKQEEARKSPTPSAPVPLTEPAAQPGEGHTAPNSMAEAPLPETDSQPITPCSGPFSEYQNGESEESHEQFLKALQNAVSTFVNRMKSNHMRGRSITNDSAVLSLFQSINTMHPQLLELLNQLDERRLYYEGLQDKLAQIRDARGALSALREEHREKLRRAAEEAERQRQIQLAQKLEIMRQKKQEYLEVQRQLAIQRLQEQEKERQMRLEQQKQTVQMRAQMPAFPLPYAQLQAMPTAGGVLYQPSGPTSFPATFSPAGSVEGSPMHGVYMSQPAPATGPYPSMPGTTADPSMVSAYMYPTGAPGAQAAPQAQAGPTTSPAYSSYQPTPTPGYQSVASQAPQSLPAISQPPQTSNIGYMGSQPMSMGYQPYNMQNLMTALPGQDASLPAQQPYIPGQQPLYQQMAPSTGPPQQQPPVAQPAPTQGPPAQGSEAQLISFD
UniProt P70297: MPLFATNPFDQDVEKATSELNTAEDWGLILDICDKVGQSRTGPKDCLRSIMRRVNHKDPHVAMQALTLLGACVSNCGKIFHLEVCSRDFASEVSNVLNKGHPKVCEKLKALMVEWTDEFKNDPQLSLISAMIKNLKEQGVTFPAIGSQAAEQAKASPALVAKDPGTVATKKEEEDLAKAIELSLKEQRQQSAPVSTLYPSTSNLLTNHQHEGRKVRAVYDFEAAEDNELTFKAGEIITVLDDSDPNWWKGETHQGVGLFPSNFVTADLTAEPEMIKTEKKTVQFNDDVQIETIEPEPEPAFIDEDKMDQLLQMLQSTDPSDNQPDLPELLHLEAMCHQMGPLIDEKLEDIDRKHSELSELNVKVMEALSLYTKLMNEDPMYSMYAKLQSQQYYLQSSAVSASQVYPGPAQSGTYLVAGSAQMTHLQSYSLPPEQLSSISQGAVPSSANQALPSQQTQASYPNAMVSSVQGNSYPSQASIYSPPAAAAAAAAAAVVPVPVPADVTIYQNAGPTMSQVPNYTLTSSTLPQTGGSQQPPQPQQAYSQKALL

Columns and labels:
[1] = biological target: Toll-like receptor 3 (TLR3) (mouse (endogenous in C8-D1A)) (UniProt Q99MB1); test: co-IP; anti-TLR3 immunoprecipitation (Catch and Release v2.0) from lysates of C8-D1A astrocytes untreated or stimulated with poly(I:C) (for STAM also poly(I:C)/LyoVec) for 5, 8, 12, 15, 30 min; blots for Hrs and STAM
[2] = biological target: Toll-like receptor 3 (TLR3) (mouse (endogenous in C8-D1A)) (UniProt Q99MB1); test: co-IP; anti-TLR3 immunoprecipitation (Catch and Release v2.0) from lysates of C8-D1A astrocytes stimulated with poly(I:C)/LyoVec for 5, 8, 12, 15, 30 min; blot for Hrs
[3] = biological target: hepatocyte growth factor-regulated tyrosine kinase substrate (Hrs) (mouse (endogenous in C8-D1A)) (UniProt Q99LI8); test: co-IP; anti-STAM and anti-Hrs immunoprecipitations (Catch and Release v2.0) from lysates of C8-D1A astrocytes untreated or stimulated with poly(I:C) for 5, 8, 12, 15 min; blots for Hrs and STAM

## hepatocyte growth factor-regulated tyrosine kinase substrate (Hrs) (from UniProt Q99LI8 1-775)
[1]
  binding: binds
[2]
  binding: binds weakly

## signal transducing adaptor molecule (STAM) (from UniProt P70297 1-548)
[1]
  binding: no binding
[3]
  binding: binds
